The target of data set [1] is GLP-1 receptors (Homo sapiens, UniProt P43220). The experiment in a line: cAMP agonism test in HEK293 cells with high expression of hGLP-1R (titled in vitro cell viability test). The settings on record: cAMP detection.
A short description of data set [2]: Kinetic solubility in FaSSIF. As to conditions: FaSSIF pH 6.5, 25°C, 2 h, 100 µM final concentration, 0.5% DMSO.
Data set [3] can be described thus: Pharmacokinetic study in mice. The settings on record: C57BL/6 mice, po, 10 mg/kg.
A short description of data set [4]: Stability in liver microsome. The settings on record: human liver microsome 0.5 mg/mL, 1 µM test substance, NADPH, 37°C. A general note: Liver microsomes are vesicles of endoplasmic reticulum, rich in cytochrome P450 enzymes.

Chains of the proteins cited; added tags and fusions are not shown. Residues count along the entry.
UniProt P43220, 24-463 limits assumed: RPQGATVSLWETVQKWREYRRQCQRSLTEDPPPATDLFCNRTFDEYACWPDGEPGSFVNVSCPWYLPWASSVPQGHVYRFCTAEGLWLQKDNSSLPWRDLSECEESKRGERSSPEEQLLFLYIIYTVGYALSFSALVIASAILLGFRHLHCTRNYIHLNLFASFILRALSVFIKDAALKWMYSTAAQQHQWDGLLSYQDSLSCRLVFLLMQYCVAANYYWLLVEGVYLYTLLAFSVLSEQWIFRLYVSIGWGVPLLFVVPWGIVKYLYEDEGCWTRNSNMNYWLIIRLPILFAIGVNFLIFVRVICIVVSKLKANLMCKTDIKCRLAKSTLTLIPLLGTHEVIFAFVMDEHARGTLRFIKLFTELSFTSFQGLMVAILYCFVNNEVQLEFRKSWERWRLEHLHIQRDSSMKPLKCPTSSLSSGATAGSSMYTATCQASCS

The structures given here were assigned with low confidence; some may be wrong. Bounds are passed on as bounds.

As to `Cc1cc(-n2nc3c(c2-n2ccn(-c4ccc5c(cnn5C5CC5)c4F)c2=O)[C@H](C)N(C(=O)c2cc4cc(C5CCOCC5)ccc4n2[C@@]2(c4noc(=O)[nH]4)C[C@@H]2C)CC32CC2)cc(C)c1F`, the 50% effective concentration (EC50) (as a rule, the concentration at which the effect is half-maximal) in data set [1] came out at 1.25 nM.
For `Cc1cc(-n2nc3c(c2-n2ccn(-c4ccc5c(cnn5C5CC5)c4F)c2=O)[C@H](C)N(C(=O)c2cc4cc([C@H]5CCOC(C)(C)C5)ccc4n2[C@@]2(c4noc(=O)[nH]4)C[C@@H]2C)CC32CC2)cc(C)c1F`, the EC50 in data set [1] was 1.12 nM. Besides, the “FaSSIF pH 6.5” value in data set [2] worked out at 37.85 µM. In addition, in data set [3], the AUC0-24 h was 87035 ng·h/mL; the Cmax – broadly, the highest concentration seen after dosing – was found to be 6937 ng/mL; the T1/2 was found to be 24.3 h. In addition, the “Human T1/2” value in data set [4] was greater than 3.07 h.
For the molecule `Cc1cc(-n2nc3c(c2-n2ccn(-c4ccc5c(cnn5C)c4F)c2=O)[C@H](C)N(C(=O)c2cc4cc(C5CCOCC5)ccc4n2C2(c4noc(=O)[nH]4)CC2)CC32CC2)cc(C)c1F`, in data set [1], the EC50 worked out at 0.74 nM.

The values are drawn from patent EP4847509A1, “GLP-1 RECEPTOR AGONIST, AND PREPARATION METHOD THEREFOR AND USE THEREOF” (dated 2026).
